Test results as given in article PMC12796345.

Biological target: Flag-RIP3 (reconstituted in L929 cells), Q9QZL0
Test: affinity purification with mass spectrometry; Flag-RIP3- or Flag-MLKL-reconstituted L929 cells, 10 ng/mL TNF for 0, 120, 210, 330 and 420 min; HBS lysis buffer (12.5 mM HEPES, 150 mM NaCl, 1% Nonidet P-40, pH 7.5); anti-Flag M2 agarose overnight at 4 °C; eluted with 3x flag peptide; heavy-labelled protein standards; DDA and SWATH-MS
Conditions: remark: other sources report otherwise

binding: binds
B1: RIP1 (endogenous, L929 cells), Q60855 1-656 (protein)
chain: MQPDMSLDNIKMASSDLLEKTDLDSGGFGKVSLCYHRSHGFVILKKVYTGPNRAEYNEVLLEEGKMMHRLRHSRVVKLLGIIIEEGNYSLVMEYMEKGNLMHVLKTQIDVPLSLKGRIIVEAIEGMCYLHDKGVIHKDLKPENILVDRDFHIKIADLGVASFKTWSKLTKEKDNKQKEVSSTTKKNNGGTLYYMAPEHLNDINAKPTEKSDVYSFGIVLWAIFAKKEPYENVICTEQFVICIKSGNRPNVEEILEYCPREIISLMERCWQAIPEDRPTFLGIEEEFRPFYLSHFEEYVEEDVASLKKEYPDQSPVLQRMFSLQHDCVPLPPSRSNSEQPGSLHSSQGLQMGPVEESWFSSSPEYPQDENDRSVQAKLQEEASYHAFGIFAEKQTKPQPRQNEAYNREEERKRRVSHDPFAQQRARENIKSAGARGHSDPSTTSRGIAVQQLSWPATQTVWNNGLYNQHGFGTTGTGVWYPPNLSQMYSTYKTPVPETNIPGSTPTMPYFSGPVADDLIKYTIFNSSGIQIGNHNYMDVGLNSQPPNNTCKEESTSRHQAIFDNTTSLTDEHLNPIRENLGRQWKNCARKLGFTESQIDEIDHDYERDGLKEKVYQMLQKWLMREGTKGATVGKLAQALHQCCRIDLLNHLIRASQS

These are yes or no findings as the source states them, for the method shown. In cells and extracts the contact can be indirect. Here binding means that the protein was enriched with, or labelled near, the bait; the list need not be complete.
